Values quoted from earlier work, collected in patent US11124483B2, “HER3 ligands and uses thereof” (THE REGENTS OF THE UNIVERSITY OF CALIFORNIA, priority 2015, dated 2021).
At least one compound was matched to its structure with a doubt left.

Biological target: T1, HER3 (Homo sapiens, UniProt P21860)
T1 sequence (P21860 693-1020 limits assumed): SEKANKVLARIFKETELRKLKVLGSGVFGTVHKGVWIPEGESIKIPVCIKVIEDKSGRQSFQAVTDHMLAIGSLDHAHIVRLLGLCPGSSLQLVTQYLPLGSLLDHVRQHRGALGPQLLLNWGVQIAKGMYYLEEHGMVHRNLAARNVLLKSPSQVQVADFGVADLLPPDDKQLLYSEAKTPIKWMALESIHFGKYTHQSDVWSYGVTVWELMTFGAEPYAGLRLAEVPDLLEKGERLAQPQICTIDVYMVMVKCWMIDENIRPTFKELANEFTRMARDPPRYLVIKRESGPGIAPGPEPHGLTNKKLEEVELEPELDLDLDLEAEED
Details: X-ray crystallographic structure; Littlefield et al., Chem. Biol. 20:453 (2014); cited from earlier work

COc1cc(Nc2c(C#N)cnc3cc(OCCCN4CCN(C)CC4)c(OC)cc23)c(Cl)cc1Cl [bosutinib]
binding to HER3: potently binds
